Measured values: patent US20140000884A1, “PETROLEUM RECOVERY PROCESS AND SYSTEM” (Shell Oil Company, priority 2012, published 2014)
Values joined by “and” are separate entries in the source; they are usually repeats but may differ in a detail not shown here. Identical values can stand only once. Like-named read-outs stand apart in the source and are kept apart here.

Assay: Extraction of mined oil sands with solvents (cyclic contact and drain)

| SMILES | Weight Change (solids) (extraction at 10° C.) | Weight Change (solids) (extraction at 30° C.) | Weight Change (solids) |
| --- | --- | --- | --- |
| CSC [Dimethyl Sulfide, dimethyl sulfide] | 16.9 g | 16.7 g | – |
| S=C=S [Carbon Disulfide, carbon disulfide] | 16.8 g | 16.4 g | – |
| C1CCOC1 [Tetrahydrofuran, tetrahydrofuran] | 17.7 g | 18.0 g | – |
| Cc1ccccc1C [o-Xylene, o-xylene] | 17.3 g | 19.5 g | – |
| ClC(Cl)Cl [Chloroform, chloroform] | – | – | 18.7 g and 19.4 g |
| CCOC(C)=O [Ethyl Acetate, ethyl acetate] | 11.2 g | 17.7 g | – |
| ClCCl [Dichloromethane, dichloromethane] | 18.9 g | 17.7 g | – |
